This is an account of results in article PMC6386418.

Protein sequences, listed by entry. Tags and fused reporters are not part of them. Lines headed by an entry give the natural chain unless they say otherwise; changes in a name come on top.
UniProt Q4V3C8: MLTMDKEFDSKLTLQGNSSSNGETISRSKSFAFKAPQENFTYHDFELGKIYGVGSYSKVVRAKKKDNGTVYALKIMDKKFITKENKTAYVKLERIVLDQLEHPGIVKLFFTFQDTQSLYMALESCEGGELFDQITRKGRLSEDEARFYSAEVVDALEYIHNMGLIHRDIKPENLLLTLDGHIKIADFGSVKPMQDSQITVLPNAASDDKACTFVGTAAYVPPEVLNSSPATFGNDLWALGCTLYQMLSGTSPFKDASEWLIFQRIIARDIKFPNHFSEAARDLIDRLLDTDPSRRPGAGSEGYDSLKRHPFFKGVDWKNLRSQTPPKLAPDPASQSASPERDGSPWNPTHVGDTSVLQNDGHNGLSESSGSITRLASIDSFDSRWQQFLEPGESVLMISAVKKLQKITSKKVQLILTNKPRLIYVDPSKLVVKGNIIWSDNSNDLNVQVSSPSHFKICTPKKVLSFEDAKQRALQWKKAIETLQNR

Holding throughout (assay): split reporter; BiFC with split YFP (pSPYNE-35S / pSPYCE-35S) in Arabidopsis Col-0 mesophyll protoplasts; 21°C in the dark for 10 to 15 hours; confocal microscopy
For test [1], the target named is T1, UCN:YFPC (UNICORN fused to the C-terminal part of YFP) (Arabidopsis thaliana) (UniProt Q9SYB9).
T1 sequence: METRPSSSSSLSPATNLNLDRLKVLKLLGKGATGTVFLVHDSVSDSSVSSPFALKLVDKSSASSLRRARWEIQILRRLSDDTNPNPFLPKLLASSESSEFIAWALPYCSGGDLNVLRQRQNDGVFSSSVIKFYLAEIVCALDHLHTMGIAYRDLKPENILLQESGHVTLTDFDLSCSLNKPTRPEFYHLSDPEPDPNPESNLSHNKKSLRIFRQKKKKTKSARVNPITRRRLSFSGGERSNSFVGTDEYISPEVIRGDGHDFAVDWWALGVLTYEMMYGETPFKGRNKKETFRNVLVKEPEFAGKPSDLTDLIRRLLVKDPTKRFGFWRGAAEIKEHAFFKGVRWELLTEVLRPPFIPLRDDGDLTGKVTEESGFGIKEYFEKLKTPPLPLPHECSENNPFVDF

Test [2] addresses T2, UCN_(G165S):YFPC (Arabidopsis thaliana) (UniProt Q9SYB9).
T2 sequence: T1 sequence with G165S

For test [3], the target named is T3, UCNKD:YFPC (UCN_(K55E)) (Arabidopsis thaliana) (UniProt Q9SYB9).
T3 sequence: T1 sequence with K55E

Test [4] has as its target T4, UCN_(KD/ΔPIF):YFPC (Arabidopsis thaliana) (UniProt Q9SYB9).
T4 sequence: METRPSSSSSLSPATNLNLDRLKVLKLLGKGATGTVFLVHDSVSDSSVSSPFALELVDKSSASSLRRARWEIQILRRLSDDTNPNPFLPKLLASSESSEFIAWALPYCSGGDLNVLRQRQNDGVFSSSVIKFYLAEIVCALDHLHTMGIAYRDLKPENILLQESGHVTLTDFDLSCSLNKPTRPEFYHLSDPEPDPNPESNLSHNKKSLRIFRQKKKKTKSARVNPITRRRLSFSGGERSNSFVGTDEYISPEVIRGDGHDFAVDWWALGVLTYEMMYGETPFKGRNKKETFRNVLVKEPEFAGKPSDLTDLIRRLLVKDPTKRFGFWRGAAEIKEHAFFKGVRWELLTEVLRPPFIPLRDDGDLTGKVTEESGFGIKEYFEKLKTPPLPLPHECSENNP

Test [5] addresses T5, UCN_(ΔPIF):YFPC (Arabidopsis thaliana) (UniProt Q9SYB9).
T5 sequence: T4 sequence with E55K

Positions count from the first letter of the chain named. No constants are given. Whether binding was seen depends on the method and setting. In cells and extracts the contact can be indirect. For some of these results: A result given as binding can be weak or reduced; the word gives no strength. For some of these results: Sequences can lack the tags named with a protein.

Regarding “PDK1.2:YFPN (PDK1.2 fused to the N-terminal part of YFP) (from UniProt Q4V3C8) (enzyme)”, the binding result was “binds” in test [1]; “no binding” in test [2]; “no binding” in test [3]; “no binding” in test [4]; “no binding” in test [5].
Consider “PDK1.2KD (PDK1.2_(K74A)), BiFC fusion (from UniProt Q4V3C8) (enzyme)”, for which the binding entry in test [1] is “no binding”.
Still for that read-out and setting: to “YFPN (N-terminal part of YFP alone) (domain or fragment)” belongs “no binding”.
